Results on one compound are retold here after patent US7320879B2, “Method of determining site-specificity and kit therefor” (Biacore AB, priority 2002, dated 2008).

Amino acid sequences for entries named in this document (tags omitted). Residues count along the entry.
UniProt P02768, 25-609: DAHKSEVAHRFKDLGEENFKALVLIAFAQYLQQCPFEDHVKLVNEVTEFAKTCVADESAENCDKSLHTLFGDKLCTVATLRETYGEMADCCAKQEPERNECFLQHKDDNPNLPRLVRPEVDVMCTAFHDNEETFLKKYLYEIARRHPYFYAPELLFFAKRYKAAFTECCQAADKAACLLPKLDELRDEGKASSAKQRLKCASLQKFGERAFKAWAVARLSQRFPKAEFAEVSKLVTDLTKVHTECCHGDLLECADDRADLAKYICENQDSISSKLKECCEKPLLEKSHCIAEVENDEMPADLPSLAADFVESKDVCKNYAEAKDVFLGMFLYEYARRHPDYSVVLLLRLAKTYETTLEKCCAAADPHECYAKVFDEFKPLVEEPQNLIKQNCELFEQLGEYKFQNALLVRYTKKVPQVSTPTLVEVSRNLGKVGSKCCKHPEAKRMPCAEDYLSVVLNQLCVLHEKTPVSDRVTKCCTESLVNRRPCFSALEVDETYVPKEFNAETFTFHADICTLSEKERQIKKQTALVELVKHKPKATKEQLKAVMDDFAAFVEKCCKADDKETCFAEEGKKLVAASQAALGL

Molecules are shown by their SMILES.

The target in test [1] is T1, HSA (Homo sapiens, UniProt P02768).
T1 construct: purchased Sigma A-4327
Particulars: known site specificity of reference compounds (crystallography studies); cited from earlier work.

In test [2] the target is T1, HSA. Briefly: SPR (BIACORE S51) competition assay for HSA-binding site specificity, dissociation-phase response of mixtures. Particulars: S1 constant 0.1 μM; reference 0-200 μM; d2 report point; FIG. 4. A general note: SPR reads the build-up and loss of mass on a sensor chip optically.

`COc1ccc2cc([C@H](C)C(=O)O)ccc2c1` [naproxen]: the “known HSA-binding site” value at HSA [1] is given as “site II”. At HSA [2], the “effect of the reference compound on binding/dissociation phase of S1 on HSA” value was “inhibits it to some degree”.
